Data taken from doi:10.1101/2022.01.25.477727.
Like-named read-outs stand apart in the source and are kept apart here. These are yes or no findings as the source states them, for the method shown. Binding seen in cells or lysates may run through a third protein. A result given as binding can be weak or reduced; the word gives no strength. Sequences can lack the tags named with a protein.

Columns and labels:
[1] = target: EMC1-Flag (Flag-tagged Drosophila EMC1, from UAS-EMC1-FLAG) (Drosophila melanogaster); assay: co-IP
[2] = target: EMC1-Flag (Flag-tagged Drosophila EMC1, from UAS-EMC1-FLAG) (Drosophila melanogaster); assay: co-IP; remark: listed apart in the source

B1: Hpo-GFP (GFP-tagged Drosophila Hippo, from UAS-Hpo-GFP) (enzyme, UniProt Q8T0S6 1-669)
chain: MSEPEVTSVVDMKSPNISSSCSFFKLKKLSEESLLQPPEKVFDIMYKLGEGSYGSVYKAVHKESSSIVAIKLVPVESDLHEIIKEISIMQQCDSPYVVRYYGSYFKQYDLWICMEYCGAGSVSDIMRLRKKTLTEDEIATILSDTLQGLVYLHLRRKIHRDIKAANILLNTEGYAKLADFGVAGQLTDTMAKRNTVIGTPFWMAPEVIEEIGYDCVADIWSLGITALEMAEGKPPYGEIHPMRAIFMIPQKPPPSFREPDRWSTEFIDFVSKCLVKEPDDRATATELLEHEFIRNAKHRSILKPMLEETCAIREQQRANRSFGGVLAASQAKSLATQENGMQQHITDNAFMEDPGTLVPEKFGEYQQSSASDATMIAHAEQGVDEGTLGPGGLRNLSKAAAPAAASSAASPLDMPAVDSGTMVELESNLGTMVINSDSDDSTTAKNNDDQKPRNRYRPQFLEHFDRKNAGDGRGDEKPIATEYSPAAAEQQQQQQQQQQQQQQDEQHLASGANDLNNWEHNMEMQFQQISAINQYGLQQHQQQQQVLMAYPLMNEQLIALNNQPNLLLSNAAPMGQQGIPAAAPAQPPPAYQNQHMHTQSHAYVEGEFEFLKFLTFDDLNQRLCNIDHEMELEIEQLNKKYNAKRQPIVDAMNAKRKRQQNINNNLIKI
- binding [1]: binds
- binding [2]: binds
